Test results from patent publication US20170192014A1 (PDL BIOPHARMA, published 2017).
No constants are given. Whether binding was seen depends on the method and setting. Some binding calls cover weakened binding; strength is not graded here.

Target: T1, caspase-3-cleaved (treated) CK-18 (Homo sapiens (Human)) (UniProt P05783)
T1 sequence: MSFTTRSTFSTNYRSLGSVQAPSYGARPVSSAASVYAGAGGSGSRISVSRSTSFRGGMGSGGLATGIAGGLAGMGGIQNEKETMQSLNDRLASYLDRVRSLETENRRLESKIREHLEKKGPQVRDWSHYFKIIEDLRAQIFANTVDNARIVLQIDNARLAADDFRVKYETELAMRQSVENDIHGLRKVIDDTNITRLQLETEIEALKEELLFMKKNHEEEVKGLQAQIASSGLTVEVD
Assay: sandwich ECL assay, capture biotin-3C2 on streptavidin beads, detector TAG-C-04, 150 ng/mL in normal human serum

binding: binds
B1: monoclonal antibody 3C2 (antibody, V domains shown)
VH: DVQLVESGGGLVQPGGSRKLSCAASGFTFSSFGMHWVRQAPEKGLEWVAYINGGSTIIYYADTVKGRFTVSRDNPKNTLFLQMTSLRSDDTAMYFCVRRTPTAAGGAMDYWGQGTSVTVSS
VL: NIMVTQSPSSLAVSAGEKVTMTCKSSQSLFYSSNQKNYLAWFQQKPGQSPKLLIYWASTRESGVADRFTGSGYGTDFTLTISSVQAEDLAVYYCQQYLSSWTFGGGTKVEIK
notes: Mouse hybridoma monoclonal antibody, detected with goat anti-mouse IgG; also called mAb 3C2; anti-VEVD mAb
